These results are taken from article PMC12231567.

The target in assay [1] is T1, C. elegans KNL-2, HA-tagged at its endogenous locus (C. elegans) (UniProt O44548).
T1 sequence: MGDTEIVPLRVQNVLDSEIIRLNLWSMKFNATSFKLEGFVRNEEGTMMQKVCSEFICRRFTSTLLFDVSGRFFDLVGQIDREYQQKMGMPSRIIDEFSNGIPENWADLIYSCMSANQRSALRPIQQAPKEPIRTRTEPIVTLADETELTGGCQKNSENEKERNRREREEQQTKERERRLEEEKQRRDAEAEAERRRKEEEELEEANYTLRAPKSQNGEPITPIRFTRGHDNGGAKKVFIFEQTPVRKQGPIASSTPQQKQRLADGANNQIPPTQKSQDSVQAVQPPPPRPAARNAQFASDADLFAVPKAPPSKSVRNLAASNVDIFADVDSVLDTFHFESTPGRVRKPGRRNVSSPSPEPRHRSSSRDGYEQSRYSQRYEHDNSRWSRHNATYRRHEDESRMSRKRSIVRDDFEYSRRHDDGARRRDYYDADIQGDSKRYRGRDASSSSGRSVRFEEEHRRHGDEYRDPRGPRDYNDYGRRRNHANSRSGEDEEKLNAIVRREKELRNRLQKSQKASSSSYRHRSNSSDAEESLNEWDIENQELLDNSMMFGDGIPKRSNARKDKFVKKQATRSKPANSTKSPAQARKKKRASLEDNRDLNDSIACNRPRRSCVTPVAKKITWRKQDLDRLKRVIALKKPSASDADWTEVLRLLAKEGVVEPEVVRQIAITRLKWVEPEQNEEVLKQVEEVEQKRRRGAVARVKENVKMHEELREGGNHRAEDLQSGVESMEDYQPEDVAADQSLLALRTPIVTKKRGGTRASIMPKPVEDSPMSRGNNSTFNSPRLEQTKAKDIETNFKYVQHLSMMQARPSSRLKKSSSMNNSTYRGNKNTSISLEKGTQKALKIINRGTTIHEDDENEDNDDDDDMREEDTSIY
Nature of the assay: affinity purification with mass spectrometry; IP-MS: embryo lysate of C. elegans expressing KNL-2::2xHA from the endogenous locus (lysis buffer with 500 mM NaCl, 1% NP-40, 0.25% deoxycholate); anti-HA magnetic beads overnight at 4 °C; LC-MS/MS.

The target in assay [2] is T2, αKNL2-N fused to the GS tag (Arabidopsis thaliana) (UniProt F4KCE9).
T2 sequence: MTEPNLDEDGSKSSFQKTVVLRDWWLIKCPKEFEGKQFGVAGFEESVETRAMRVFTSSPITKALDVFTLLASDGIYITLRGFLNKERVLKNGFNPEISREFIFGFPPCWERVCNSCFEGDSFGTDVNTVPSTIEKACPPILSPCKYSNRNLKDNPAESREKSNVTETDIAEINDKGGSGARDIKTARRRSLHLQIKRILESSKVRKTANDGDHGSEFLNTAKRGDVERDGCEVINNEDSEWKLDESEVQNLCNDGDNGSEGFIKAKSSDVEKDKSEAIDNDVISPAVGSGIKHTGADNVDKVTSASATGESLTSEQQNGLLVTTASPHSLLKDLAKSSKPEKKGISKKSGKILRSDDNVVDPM
Nature of the assay: affinity purification with mass spectrometry; GS-tagged αKNL2-N or αKNL2-C in Arabidopsis PSB-D suspension cells; Benzonase-treated extract (25 mM HEPES-KOH pH 7.4, 100 mM NaCl, 0.05% IGEPAL CA-630); IgG-coupled magnetic beads; LC-MS/MS; three purifications for each construct.

Results are given in words; binding and its absence hold for the method and conditions named. In cells and extracts the contact can be indirect. These calls come from enrichment with a bait or labelling near it, and not all partners need be listed. Sequences can lack the tags named with a protein.

B1: CeMAT-1, endogenous in C. elegans embryos (protein, UniProt Q9N593 1-788)
chain: MKESAASVAVRPQLREVFERFPADAHRTIEDEIHEMMKCYAFDDAIFLAELHYETDKSNNSESLLLYADCLYRANKKEECYGLLSSVKLSGARLFYLLARVSYDLNKIDDCRGALFEHDDGVIRKDILEEPRVASHANLLHAQMLCDESYMDLALESCQKSLDENILLWSAIITYLRFGGHDLAHTFEKHHRKSNGLYLDSPASSLKSETPSPNVPGPSSSSAASTAEPSRLESSVRRSTRGTIASANRETRNTTSNITPRQSTPGSTPSRINPTAPRKSSRISEMTTRRTESSVTGSRSSLFTEPERPHTRATHSSRNRANAALNSDTENSNASNTRTRSGIASVTRGSSSSQRTNPVRTSIRIADAAAAANKTAKTLSQRRRNEKQPLVSRNSNLARSLSGSTNSVASTASERPSEDEVSQINPPLPSVASSLNNDEPMDIVDGVYDPEYKKLFDVYQHIALIEESISTYNWRSADALFAKLDRDIILNTSMVRLQLGRACFEQSEYRECRNILDDLHKRRKWKVDGTELLSTSMWHLQDTHALSALSQILTTESRERPQSWCAAGNCFSLQRQHTQAIECMERAIQLDKRFAYAYTLLGHELIVQDELDKAAGSFRSALLLSPRDYRAWYGLGLVHLKKEQNLTALTNIQKAVNINPTNRAMLCTLSQIEQQRGQIDTALVLIDRALTLNPLDVACRFNRSRLLFEANRNEECLVELDKLKASSPDEAFIFHLLARVHRRMGNTHLALLNYSWAAELDPRGEQNITDSNVINREEYEDDEYGSPV
On to B1, for which, in assay [1], the binding result is “binds”.

B2: APC2, endogenous in Arabidopsis culture cells (protein, UniProt Q8H1U5 1-865)
chain: MEALGSSDCNLEILETLSDDAIQEITESYDGFFTTVESLIAGTGDSLVEDEFVSHVYCLCKYGLDSLVRDHFLRSLEQAFEKGGASSFWQHFDAYSEKKHHNYGEEIQIVLCKALEEISIEKQYHEKCLSIVVHALQSFKEQSSDDRQNSDTERVHLFSRFQSMLSSTLMTTLPQHFPEILHWYFKERLEELSAIMDGDGIEEQEDDCMDLDEKLRYKNGEMDVDEGCSQGKRLGHDKLVKNIGKVVRDLRSIGFTSMAENAYASAIFLLLKAKVHDLAGDDYRTSVLESIKEWIQTVPLQFLNALLSYLGDSVSYGTTSSGLTSPLACCPSPSFSRVVTPSEGIVRWKLRLEYFAYETLQDLRIAKLFEIIVDYPESSPAIEDLKQCLEYTGQHSKLVESFISSLKYRLLTAGASTNDILHQYVSTIKALRAIDPAGVFLEAVGEPIRDYLRGRKDTIKCIVTMLTDGSGGNANGSGNPGDSLLEELMRDEESQENVGFDDDFHTDDKQAWINASRWEPDPVEADPLKGSLSQRKVDILGMLVDIIGSKEQLVNEYRVMLAEKLLNKTDYDIDTEIRTVELLKIHFGEASMQRCEIMLNDLIDSKRVNTNIKKASQTGAELRENELSVDTLTSTILSTNFWPPIQDEPLELPGPVDKLLSDYANRYHEIKTPRKLLWKKNLGTVKLELQFEDRAMQFTVSPTHAAIIMQFQEKKSWTYKDLAEVIGIPIDALNRRVNFWISKGVLRESTGANSNSSVLTLVESITDSGKNEGEELLTGEEEGETSIASVEDQLRKEMTIYEKFIMGMLTNFGSMALERIHNTLKMFCVADPSYDKSLQQLQSFLSGLVSEEKLEFRDGMYLLKK
Consider B2, for which the binding result in assay [2] was “binds”.

B3: CeFZY-1 (CDC20.1 ortholog), endogenous in C. elegans embryos (protein, UniProt Q09373 1-507)
chain: MNNKGRTPGSAGRTVRSSAQQNGLTMRKRDMTPTRNTNLLPNATFVGDRFLGVRLDQDELDHANHLMTSKLYSNKENLNNSMSEPNSPEKKSVEGEALKQMMRHKSTGALTDADDGDRILCYKKNLAPPPAIGYINQAKVLYSTNSVINPASSVKKSTRHVKETATKVLDGPGLTKDLYSRHLDWGCHNWVAVALGHELYLWNTETCVIKNLFEDNAPTNEGLITSVRWSQEGRYISLGYASGAVKIYDPNRPKTTEYVRELRTLRVGGASRCASIAWRKQGVMTCGYKSGDIVNHDVRISQHVVSSWGGDNGHCRDVTALEWSADENMCVSGSSDRTAKIWDGRHVRGSTVIQDPEPMFTIDEHTGQVRTAQFCSFRDGILATGGGINDGTVKLWDVKRQFQKVRELNVCETGGVGGIVFNRPYSEMLTASDDGFLRIYRFNANYKLSHEIQASNEPIMDLVGSPFDEVLIGDMEETLKVFQLFNVDKSTNILDRTAPKNVGLNVR
For B3, in assay [1], the binding entry is “binds”.

B4: CeMAT-3 (APC8), endogenous in C. elegans embryos (protein, UniProt Q19294 1-673)
chain: MNVSFSTPVQNSTASRLALIQQAAARSGALPPAGQYRGSKLSPFDVSQMSGVSISMVERAKINGPEFVEELEWLRQQTTSRCFLDAEMWTNEILAHLPDKWCAPNTLNLYNQVSELVLDNTRSPMASPASNSLYAPGEDQMPTVKRNHTSRFAQSLIKNKEFRRAAFFLEKTMNGNKLDHFLHFRCLFLAYYQEHLENDAEGIERKTSFAEERSPFSLLYQRMEDKKLRENEDVWFEYLMGLLEVELGLKDLAEKSFRNVVIREPRIWPAWEALSRLIADIEDADKFVTSAEVKSLWMGDWFMTLVLQRFHQHSMAIQKAEQLVTRGMTGLPMIITKIAACSNARHDHDQAISNFEDVRKADPYRLGDLHLLSDSLYIRNDQKKLSTLAIEVYKVHKFRWETCCIVANYHAIRRDSEHAIKFFQRALRLNPGLAALWVLIGHEFMEMKNNAAACVSYRRAIEIDPADHRGWYGLGQMYDIMKMPAYALFYYQEAQKCKPHDSRLLVALGDIYSKLNRIEDAEKCFTGAYLFGDVEGNALWSLAKLHERYSDDNKAAQAFEVFLVVYELVTSAEEKIIYAIAFLANHFFKIEDFDKASEYATKCLAFETLCQEGNRLFREIAKIQARESRLPVEEAPGPSNASAAGGQEAMDTEEAPQEGGEEEMSEGEDDFSF
For the molecule B4, the binding result in assay [1] is listed as “binds”.

B5: CeEMB-27, endogenous in C. elegans embryos (protein, UniProt G5EG38 1-655)
chain: MSAISPDTKSFAIPTLADEGSSSKPASSLDLPKHESIRFKPIKTLASRIDGSEYYDEASMEKVMEMLEIGRTDEAVAYADTLYSNIIDDEQQDIVTIAEYVKILVVLRQWRRISHIIARGNYHQIHIVFAYYAATALFQRKLYEDVAELSVGHLLPSNGQIGPLPVRTLSQVTGRYVEEERMKYSFANMAELDNSSKKLRMVPALMITIAESFLKLMNRDAAMICINYALSLDNTTLHVERLMAKYNLVEPAMWEKYRKVRNEQLKLHEGNHDPRILMERAQRAYEMGRFRETKKITDELFDLFGPHPECIILRIHCLTMLKDSRSLLELGHQLVSDDPHIPLPWYCVAMYYYSIGANSRARNFISKCTMMDSTFAEGWVAFGHILHYEVEHEQSMSCYYRASKLVDKSSEPFLYTSLQYSTHSQKLSKKFMGEAVARAPNDPLIRHEEACVAYTAKSYAEADILFRTVLYMVTETDEIIPIEEVLKKKIDDFWHPMLNNIGHIARRQGRLNEAIMFYQKAIRMEPKFVDAIASTALCYAVLGNIDKATEFFNKALAIDPFNETIRQCLSKMIQASKESYSVDQQTLPPAYNSETYFGAQEILPYCAIRKPRNDGFVVPSIVSSSQPFMSMLRDRLRRQDQLYAQEPDNDAGNQV
As to B5, in assay [1], the binding result was “binds”.
